{"sequences": {"note": "Amino acid sequences for entries named in this document (tags omitted). A change or cut given only in a name is not applied to a line headed by its entry.", "UniProt P18054": "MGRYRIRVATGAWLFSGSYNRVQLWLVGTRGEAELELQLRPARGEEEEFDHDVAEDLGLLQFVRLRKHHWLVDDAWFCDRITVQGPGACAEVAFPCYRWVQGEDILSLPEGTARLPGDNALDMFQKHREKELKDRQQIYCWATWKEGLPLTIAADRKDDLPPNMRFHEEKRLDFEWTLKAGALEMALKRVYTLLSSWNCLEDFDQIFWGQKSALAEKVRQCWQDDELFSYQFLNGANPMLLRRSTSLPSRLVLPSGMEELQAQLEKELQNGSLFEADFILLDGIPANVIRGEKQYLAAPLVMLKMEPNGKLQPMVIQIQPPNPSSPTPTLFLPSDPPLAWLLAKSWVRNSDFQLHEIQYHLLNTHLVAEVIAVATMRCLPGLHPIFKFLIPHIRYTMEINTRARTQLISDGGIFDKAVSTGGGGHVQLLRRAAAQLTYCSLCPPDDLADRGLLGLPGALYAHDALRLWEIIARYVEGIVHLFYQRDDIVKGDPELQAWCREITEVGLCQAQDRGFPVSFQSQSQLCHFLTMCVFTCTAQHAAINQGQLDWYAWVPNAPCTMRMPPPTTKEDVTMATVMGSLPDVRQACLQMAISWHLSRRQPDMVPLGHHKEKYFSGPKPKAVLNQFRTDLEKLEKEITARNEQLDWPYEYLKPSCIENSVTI"}, "source": "PubChem BioAssay AID1671190", "about": "(National Center for Advancing Translational Sciences (NCATS), 2021)", "note": "“And” between values parts separate entries of the source, which are not always exact repeats. Equal values may be shown once. In all, about 580,000 compounds went through this assay and about 6,100 (1.1%) were called active. Inconclusive results, whose numbers are uncertain, are shown with a selection of clear calls. Calls come from the whole dose curve; as a rule, active = well fitted inhibition curve with a large enough effect; inconclusive = small, poorly fitted or top-dose-only effect, or another doubt; inactive = no such curve, though single readings can be large or run the other way. Where the call is inconclusive, the potency comes from a doubtful curve fit. % is set by controls: 0 for no effect and ±100 for the full control effect; potency is the fitted concentration of half-maximal effect."}
{"target": "Polyunsaturated fatty acid lipoxygenase ALOX12 (Homo sapiens) (UniProt P18054)", "assay": "Primary qHTS assay for inhibitors of human arachidonate 12S-lipoxygenase (ALOX12): Round 2", "settings": "purified 12hLO, xylenol orange hydroperoxide absorbance; activity change, negative = inhibition: at 108 µM (top of the series) unless noted", "in_short": "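Purified human 12hLO at 150 nM in 25 mM Hepes, 0.01% Triton X-100, pH 7.0, preincubated 15 min at room temperature with compound. Reaction started with 40 uM arachidonic acid, 30 min at room temperature. Hydroperoxide measured by Fe-xylenol orange, 573/405 nm absorbance ratio.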"}
{"compound": "COCCCn1cn[nH]c1=S", "activity change, negative = inhibition": "inactive: 0.094%"}
{"compound": "COc1ccccc1N1CCN(c2ccc3c(c2)S(=O)(=O)c2cccc(C(=O)NCC4CC4)c2C3=O)CC1", "activity change, negative = inhibition": "inconclusive: -36% [inhibitor]"}
{"compound": "Cc1scc(-c2n[nH]c(=S)n2Cc2ccccc2)c1C", "Potency": "inconclusive: 22.4 µM [inhibitor, partial curve, poor fit]"}
{"compound": "Cc1ccc(NC(=O)C(Sc2nnc(-c3ccoc3C)o2)c2ccccc2)cc1Cl", "note": "(centres undefined)", "activity change, negative = inhibition": "inactive: -4.49%"}
{"compound": "COc1ccc(C[C@H](NC(=O)C2=C[C@@H](NC(=O)CS(=O)(=O)c3ccccc3)[C@@H](O)[C@H](O)C2)C(N)=O)cc1", "activity change, negative = inhibition": "inactive: 3.04%"}
{"compound": "Cl/C(=C\\n1cncn1)c1ccc(Cl)cc1Cl", "Potency": "inconclusive: 50.1 µM [inhibitor, partial curve, poor fit]"}
{"compound": "O=C(O)/C(=C\\c1ccc(F)cc1)c1ccc(-c2ccccc2)cc1", "Potency": "inconclusive: 44.7 µM [inhibitor, partial curve, poor fit]"}
{"compound": "C(=C\\c1ccccc1)/CSc1nnc(-c2ccccn2)n1Cc1ccco1", "activity change, negative = inhibition": "inactive: -8.61%"}
{"compound": "Cc1ccccc1C(C)Nc1ccc(S(N)(=O)=O)cc1[N+](=O)[O-]", "note": "(centres undefined)", "Potency": "inconclusive: 44.7 µM [inhibitor, partial curve, poor fit]"}
{"compound": "Nc1cc(Cl)cc2c1-c1ccc(Cl)cc1C2", "Potency": "inconclusive: 44.7 µM [inhibitor, partial curve, poor fit]"}
{"compound": "Nc1c(N(C(=O)Nc2ccc(Cl)c(Cl)c2)C2CCCC2)c(=O)[nH]c(=O)n1Cc1ccccc1", "Potency": "inconclusive: 70.8 µM [inhibitor, partial curve, poor fit]"}
{"compound": "COc1ccc(-c2nc(CS(=O)(=O)CC(=O)NCc3ccccc3Br)c(C)o2)cc1", "Potency": "inconclusive: 15.8 µM [inhibitor, full curve, poor fit] and inconclusive: 50.1 µM [inhibitor, partial curve, poor fit]"}
{"compound": "CN(N=Cc1ccccc1)C(=S)Nc1ccccc1", "Potency": "inconclusive: 44.7 µM [inhibitor, partial curve, poor fit]"}
{"compound": "O=C(NCCCN1CCCCCC1)c1ccc2c(c1)sc1nc(-c3ccccc3)cn12", "Potency": "inconclusive: 1.12 µM [inhibitor, full curve, poor fit]"}
{"compound": "O=[N+]([O-])c1cc(S(=O)(=O)Nc2ccccc2)ccc1N1CCN(c2ccc(O)cc2)CC1", "Potency": "active: 25.1 µM"}
{"compound": "COc1ccc(C(=O)CCN2CCN(c3ccc(OC)cc3)CC2)cc1", "activity change, negative = inhibition": "inactive: 11.8%"}
{"compound": "COc1ccc(C(=O)CSc2nnc3c(=O)n(-c4cc(C)cc(C)c4)ccn23)cc1OC", "Potency": "inconclusive: 50.1 µM [inhibitor, partial curve, poor fit]"}
{"compound": "C[C@H](NC(=O)[C@@H]1CCCN1C(=O)[C@@H]1CCCN1C(=O)c1cccc2ccccc12)c1ccccc1", "Potency": "inconclusive: 100 µM [inhibitor, single point]"}
{"compound": "COC(=O)c1nn(-c2ccc(OC)cc2)c(=O)cc1O", "activity change, negative = inhibition": "inactive: 1.49%"}
{"compound": "CCOc1ccc(NC(=S)N/N=C(\\C)Cc2ccc(OC)cc2)cc1", "Potency": "inconclusive: 35.5 µM [inhibitor, partial curve, poor fit]"}
{"compound": "COc1cc(CC(=O)Oc2ccc3c(c2)OCO3)cc(OC)c1OC", "activity change, negative = inhibition": "inactive: 0%"}
{"compound": "COCCn1c(=S)[nH]c2cc(C(=O)N3CCN(Cc4ccc5c(c4)OCO5)CC3)ccc2c1=O", "activity change, negative = inhibition": "inactive: 0%"}
{"compound": "CCN(c1ccccc1)S(=O)(=O)c1ccc(OC)c(NC(=O)CNC)c1", "Potency": "inconclusive: 2.51 µM [inhibitor, full curve, poor fit]"}
{"compound": "Cc1ccc(C(=O)CC2(O)C(=O)Nc3ccc(F)cc32)cc1", "note": "(centres undefined)", "activity change, negative = inhibition": "inactive: 4.99%"}
{"compound": "CC(C)N1C[C@H](O)C[C@H]1c1nnc2n1CCN(C(=O)COc1ccccc1)CC2", "Potency": "inconclusive: 3.55 µM [inhibitor, full curve, poor fit]"}
{"compound": "COc1ccc(C(=O)C2CCN(CC(=O)Nc3ccc(C)cc3)CC2)cc1", "Potency": "inconclusive: 126 µM [inhibitor, single point]"}
{"compound": "C=CCOc1cccc(C(=O)/C=C2/C(=O)Nc3ccccc32)c1", "Potency": "inconclusive: 28.2 µM [inhibitor, partial curve]"}
{"compound": "O=S(=O)(NCCC1=CCCCC1)c1ccc(Br)cc1", "Potency": "inconclusive: 126 µM [inhibitor, single point]"}
{"compound": "COCCCNC(=S)NCCCNc1nc2cc(C)cc(C)c2cc1C#N", "Potency": "inconclusive: 39.8 µM [inhibitor, partial curve, poor fit]"}
{"compound": "O=C1N(Cc2ccccc2F)CCCN1c1ccc(C(=O)N2CCc3ccccc32)cc1", "Potency": "inconclusive: 5.62 µM [inhibitor, full curve, poor fit]"}
{"compound": "CCOC(=O)c1c(NC(=O)COc2ccc(Cl)cc2C)sc2c1CCCCC2", "Potency": "inconclusive: 50.1 µM [inhibitor, partial curve, poor fit]"}
{"compound": "COc1ccc(/C(O)=C2/C(=O)C(=O)N(CCN3CCNCC3)C2c2cccc([N+](=O)[O-])c2)cc1", "note": "(centres undefined)", "Potency": "inconclusive: 39.8 µM [inhibitor, single point]"}
{"compound": "CC(C)CC(=O)NC(=S)Nc1ccc(N2CCOCC2)c(Cl)c1", "Potency": "inconclusive: 50.1 µM [inhibitor, partial curve, poor fit]"}
{"compound": "CCCCCNC(=O)Cc1csc2nc(C)c(-c3cc(C)n(-c4cc(Cl)ccc4C)n3)c(=O)n12", "Potency": "inconclusive: 2.82 µM [inhibitor, full curve]"}
{"compound": "CN1c2cc(C(=O)Nc3cccc(C(F)(F)F)c3)ccc2C(=O)N2CCCCCC21", "note": "(centres undefined)", "activity change, negative = inhibition": "inactive: -4.15%"}
{"compound": "S=C(N/N=C/c1cccs1)NC1CC2CCC1C2", "note": "(centres undefined)", "Potency": "inconclusive: 44.7 µM [inhibitor, partial curve, poor fit]"}
{"compound": "N#Cc1nc(/C=C/c2ccccc2)oc1N1CCCCC1", "Potency": "inconclusive: 35.5 µM [inhibitor, partial curve, poor fit]"}
{"compound": "CC(=O)C1C(c2ccc(Cl)cc2)NC(=O)NC1(O)C(F)(F)F", "note": "(centres undefined)", "Potency": "inconclusive: 79.4 µM [inhibitor, single point]"}
{"compound": "O=C(Nc1ccc(Cl)c(S(=O)(=O)Nc2ccccc2Cl)c1)c1n[nH]c2ccccc12", "activity change, negative = inhibition": "inactive: -13.8%"}
{"compound": "O=C1C2CCCN2C(=O)N1Cc1coc(-c2cccc(F)c2)n1", "note": "(centres undefined)", "Potency": "inconclusive: 141 µM [inhibitor, single point]"}
{"compound": "CCN(CC)CCN(C(=O)c1ccc(Br)s1)c1nc2cc3c(cc2s1)OCO3", "Potency": "inconclusive: 50.1 µM [inhibitor, partial curve, poor fit]"}
{"compound": "CCOc1ccc(NCc2cccn2-c2nnc(N3CCC(C(=O)NC(C)C)CC3)s2)cc1", "activity change, negative = inhibition": "inactive: 7.46%"}
{"compound": "COc1ccc(Cn2cc3c(-c4ccc(F)cc4)nnc-3c3cc(OC)c(OC)cc32)cc1", "Potency": "inconclusive: 89.1 µM [inhibitor, single point]"}
{"compound": "COc1ccc(CCn2c(-c3cc([N+](=O)[O-])cc([N+](=O)[O-])c3)nc3nc4ccccc4nc32)cc1OC", "activity change, negative = inhibition": "inactive: 0.721%"}
{"compound": "Cc1ccc(C(=O)NC2CCN(c3cc(-c4ccccc4)[nH]n3)CC2)cc1F", "Potency": "inconclusive: 79.4 µM [inhibitor, single point]"}
{"compound": "Cc1nc(N2CCN(Cc3ccccc3)CC2)nc2c1C(=O)CC(c1ccco1)C2", "note": "(centres undefined)", "activity change, negative = inhibition": "inactive: -13.7%"}
{"compound": "CC(=O)c1cc(CNC(=O)CCl)cs1", "Potency": "inconclusive: 22.4 µM [inhibitor, partial curve, poor fit]"}
{"compound": "CC(C(=O)c1ccccc1)[n+]1cccc(C(N)=O)c1", "note": "(centres undefined)", "activity change, negative = inhibition": "inconclusive: -30.1% [inhibitor]"}
{"compound": "CCNc1nc(NC(C)C)nc(N(C#N)CCOc2ccc(Cl)cc2Cl)n1", "activity change, negative = inhibition": "inactive: -7.42%"}
{"compound": "Cc1c(CCOC(=O)C23CC4CC(CC(C4)C2)C3)sc[n+]1CC#N", "activity change, negative = inhibition": "inactive: -29.8%"}
{"compound": "CCOc1ccc(/C=C2/NC(=O)NC2=O)cc1I", "Potency": "inconclusive: 100 µM [inhibitor, partial curve, poor fit]"}
{"compound": "COc1ccc(CN2CCCC(c3nn(-c4ccc(Cl)cc4)c(=O)[nH]3)C2)cc1", "note": "(centres undefined)", "Potency": "inconclusive: 39.8 µM [inhibitor, full curve, poor fit]"}
{"compound": "Cc1ccc(C)c(NC(=O)CSc2ncc(S(=O)(=O)c3ccc(C)c(Cl)c3)c(=O)[nH]2)c1", "Potency": "inconclusive: 89.1 µM [inhibitor, partial curve, poor fit]"}
{"compound": "CS(=O)(=O)N1CCN(c2ccc(NC(=O)CSc3nnc(-c4ccco4)o3)cc2)CC1", "Potency": "inconclusive: 100 µM [inhibitor, single point]"}
{"compound": "CCCC[C@H](CC(=O)c1ccccc1)[C@@H](OC(C)=O)C(=O)Oc1c(C(C)C)cccc1C(C)C", "Potency": "inconclusive: 100 µM [inhibitor, single point]"}
{"compound": "OCc1c[nH]c2ccccc12", "Potency": "inactive and inconclusive: 28.2 µM [inhibitor, partial curve, poor fit]"}
{"compound": "Cc1nc(C(F)(F)F)ccc1C(=O)N1CCC1(C)C(=O)NS(=O)(=O)c1ccc(F)cc1F", "note": "(centres undefined)", "Potency": "inconclusive: 39.8 µM [inhibitor, partial curve]"}
{"compound": "CC(C)c1ncc(S(=O)(=O)c2ccc(C(F)(F)F)cn2)c(N)n1", "Potency": "inconclusive: 89.1 µM [inhibitor, partial curve, poor fit]"}
{"compound": "CCOc1ccc(NC(=S)c2ccc3ccccc3n2)cc1", "activity change, negative = inhibition": "inactive: -1.6%"}
{"compound": "O=C(c1ccc2c(c1)N(Cc1ccc(F)cc1)C(=O)c1ccccc1S2=O)N1CCC(Cc2ccccc2)CC1", "note": "(centres undefined)", "activity change, negative = inhibition": "inactive: -29.3%"}
{"compound": "CC(C1CC1)N(CC(F)(F)F)C(=O)CN(C)CC(=O)NCc1ccco1", "note": "(centres undefined)", "activity change, negative = inhibition": "inactive: 22.5%"}
{"compound": "O=[N+]([O-])c1ccc(N/N=C\\c2cccn2-c2ccccc2)nc1", "activity change, negative = inhibition": "inactive: -3.69%"}
{"compound": "Cc1ccc(C(=O)C[n+]2ccccc2)cc1", "Potency": "inconclusive: 44.7 µM [inhibitor, partial curve, poor fit]"}
{"compound": "CCCc1cc(NCCCN(C)C)n2c(nc3ccccc32)c1C#N", "Potency": "inconclusive: 2 µM [inhibitor, full curve, poor fit]"}
